Results published in patent US20250282861A1 (SYDDANSK UNIVERSITET, published 2025).
Results are given in words; binding and its absence hold for the method and conditions named. Some entries that bind do so weakly or less than the wild type.

Biological target: T1, rat MFAP4 (rat) (UniProt Q497C9)
T1 sequence: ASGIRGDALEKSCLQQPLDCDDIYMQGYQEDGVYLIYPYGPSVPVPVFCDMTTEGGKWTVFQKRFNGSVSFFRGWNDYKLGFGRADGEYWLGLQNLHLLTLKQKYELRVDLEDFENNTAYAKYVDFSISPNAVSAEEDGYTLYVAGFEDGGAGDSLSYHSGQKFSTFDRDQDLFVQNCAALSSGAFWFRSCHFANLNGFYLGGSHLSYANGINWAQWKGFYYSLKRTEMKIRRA
Test: sandwich ELISA, biotinylated detection antibody at 0.5 µg/ml

B1: HG Hyb 7-14 murine monoclonal antibody raised against human recombinant MFAP4 (antibody, mouse IgG1, V domains shown)
VH: EVKVVESGGGLVQPGGSLRLSCATSGFTFSDFYMEWVRQPPGKRLEWIAASRNKANDYTTEYSASVKGRFIVSRDTSQSILYLQLNALRAEDTAIYYCARNYYDSSYWYFDVWGAGTTVTVSS
VL: DIVLTQSPSYLAASPGETITINCRASKSISKYLAWYQERPGKTNKLLIYSGSTLQSGIPSRFSGSGSGTDFTLTISSLEPEDFAMYYCQQHNEYPFTFGAGTKLELK
**Q.** B1 was tested. Which binding did it give?
**A.** binds
